From US8198291B2, “Intranasal opioid compositions” (University of Kentucky Research Foundation, priority 2000, dated 2012)

## CN1CC[C@]23c4c5ccc(O)c4O[C@H]2C(=O)CC[C@H]3[C@H]1C5.Cl [hydromorphone HCL]
After 2 mg IN dose
  nasal irritation: not observed
After single IN doses
  local administration effect of the formulation: bitter taste
